Assay results from paper doi:10.1101/2025.01.06.631460 (bioRxiv, 2025).
These are yes or no findings as the source states them, for the method shown. In cells and extracts the contact can be indirect. These calls come from enrichment with a bait or labelling near it, and not all partners need be listed.

Chains of the proteins cited; added tags and fusions are not shown. Residues count along the entry.
UniProt O22476, residues 24-1196: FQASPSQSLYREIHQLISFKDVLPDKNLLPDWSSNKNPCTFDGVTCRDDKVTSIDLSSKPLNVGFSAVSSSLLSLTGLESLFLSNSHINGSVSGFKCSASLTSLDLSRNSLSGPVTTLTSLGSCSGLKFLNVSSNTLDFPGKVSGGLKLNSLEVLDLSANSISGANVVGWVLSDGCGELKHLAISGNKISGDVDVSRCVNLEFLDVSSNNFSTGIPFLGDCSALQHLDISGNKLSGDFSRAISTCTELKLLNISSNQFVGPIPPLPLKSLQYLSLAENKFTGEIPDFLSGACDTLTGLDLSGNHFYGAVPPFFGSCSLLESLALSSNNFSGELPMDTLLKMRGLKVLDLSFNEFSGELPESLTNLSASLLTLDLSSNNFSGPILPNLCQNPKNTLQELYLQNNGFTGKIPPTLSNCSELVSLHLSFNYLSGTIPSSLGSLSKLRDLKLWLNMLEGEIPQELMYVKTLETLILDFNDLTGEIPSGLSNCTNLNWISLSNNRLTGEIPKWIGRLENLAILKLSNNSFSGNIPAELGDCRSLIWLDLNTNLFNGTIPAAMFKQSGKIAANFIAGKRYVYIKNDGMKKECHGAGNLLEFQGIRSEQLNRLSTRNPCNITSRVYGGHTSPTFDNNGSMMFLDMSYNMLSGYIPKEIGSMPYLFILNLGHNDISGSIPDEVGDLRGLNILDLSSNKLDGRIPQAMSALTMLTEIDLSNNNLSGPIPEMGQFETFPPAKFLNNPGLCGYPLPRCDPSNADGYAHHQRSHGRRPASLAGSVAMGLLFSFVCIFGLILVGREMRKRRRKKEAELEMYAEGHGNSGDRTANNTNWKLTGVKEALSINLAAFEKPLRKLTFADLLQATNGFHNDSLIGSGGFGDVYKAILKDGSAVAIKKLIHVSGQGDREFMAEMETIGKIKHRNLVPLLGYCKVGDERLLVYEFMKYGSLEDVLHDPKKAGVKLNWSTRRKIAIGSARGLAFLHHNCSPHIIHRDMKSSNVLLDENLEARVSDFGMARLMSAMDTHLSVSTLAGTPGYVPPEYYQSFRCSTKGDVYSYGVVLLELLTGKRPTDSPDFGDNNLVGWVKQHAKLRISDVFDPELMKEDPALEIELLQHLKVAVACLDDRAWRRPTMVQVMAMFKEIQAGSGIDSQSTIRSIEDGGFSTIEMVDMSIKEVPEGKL

Molecular target: T1, CNGC2-TurboID (Arabidopsis thaliana) (UniProt O65718)
T1 sequence: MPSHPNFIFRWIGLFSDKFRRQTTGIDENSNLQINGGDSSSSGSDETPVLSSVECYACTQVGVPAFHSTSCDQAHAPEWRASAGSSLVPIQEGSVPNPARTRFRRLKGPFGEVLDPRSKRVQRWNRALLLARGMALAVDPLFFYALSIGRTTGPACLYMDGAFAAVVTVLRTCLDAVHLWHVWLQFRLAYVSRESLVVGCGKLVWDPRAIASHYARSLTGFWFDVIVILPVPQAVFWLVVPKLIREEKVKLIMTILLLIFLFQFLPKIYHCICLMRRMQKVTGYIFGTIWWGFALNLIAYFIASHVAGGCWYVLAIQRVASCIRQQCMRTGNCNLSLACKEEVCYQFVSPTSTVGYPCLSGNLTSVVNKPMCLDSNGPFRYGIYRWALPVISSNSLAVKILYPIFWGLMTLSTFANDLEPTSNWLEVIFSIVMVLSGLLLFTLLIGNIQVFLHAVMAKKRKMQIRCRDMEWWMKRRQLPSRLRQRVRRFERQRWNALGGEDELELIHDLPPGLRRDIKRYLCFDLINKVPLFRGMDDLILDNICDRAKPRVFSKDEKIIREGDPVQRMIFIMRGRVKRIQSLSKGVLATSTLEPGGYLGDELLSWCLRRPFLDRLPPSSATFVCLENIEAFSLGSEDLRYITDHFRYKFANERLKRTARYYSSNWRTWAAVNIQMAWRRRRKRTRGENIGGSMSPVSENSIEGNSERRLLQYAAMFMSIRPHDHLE
Assay: proximity labelling

Molecule	binding
BRI1 (from UniProt O22476 24-1196) (receptor)	binds
ARO3 (from UniProt O65640)	binds
ARO4	binds
CNGC4 (protein, UniProt Q94AS9 1-694) MATEQEFTRASRFSRDSSSVGYYSEEDNTEEEDEEEEEMEEIEEEEEEEEEEDPRIGLTCGGRRNGSSNNNKWMMLGRILDPRSKWVREWNKVFLLVCATGLFVDPLFLYTLSVSDTCMCLLVDGWLALTVTALRSMTDLLHLWNIWIQFKIARRWPYPGGDSDGDTNKGGGTRGSTRVAPPYVKKNGFFFDLFVILPLPQVVLWVVIPSLLKRGSVTLVVSVLLVTFLFQYLPKIYHSIRHLRRNATLSGYIFGTVWWGIALNMIAYFVAAHAAGACWYLLGVQRSAKCLKEQCENTIGCDLRMLSCKEPVYYGTTVMVLDRARLAWAQNHQARSVCLDINTNYTYGAYQWTIQLVSSESRLEKILFPIFWGLMTLSTFGNLESTTEWSEVVFNIIVLTSGLLLVTMLIGNIKVFLHATTSKKQAMHLKMRNIEWWMKKRHLPIGFRQRVRNYERQRWAAMRGVDECEMVQNLPEGLRRDIKYHLCLDLVRQVPLFQHMDDLVLENICDRVKSLIFTKGETIQKEGDAVQRMLFVVRGHLQSSQLLRDGVKSCCMLGPGNFSGDELLSWCLRRPFVERLPPSSSTLVTLETTEAFGLDAEDVKYVTQHFRYTFVNEKVKRSARYYSPGWRTWAAVAVQLAWRRYKHRLTLTSLSFIRPRRPLSRCASLGEDKLRLYAAILTSPKPNPDDFDDY	binds
